# Library screening results

Amino acid sequences for entries named in this document (tags omitted).
UniProt E9BF75, entry or part of it: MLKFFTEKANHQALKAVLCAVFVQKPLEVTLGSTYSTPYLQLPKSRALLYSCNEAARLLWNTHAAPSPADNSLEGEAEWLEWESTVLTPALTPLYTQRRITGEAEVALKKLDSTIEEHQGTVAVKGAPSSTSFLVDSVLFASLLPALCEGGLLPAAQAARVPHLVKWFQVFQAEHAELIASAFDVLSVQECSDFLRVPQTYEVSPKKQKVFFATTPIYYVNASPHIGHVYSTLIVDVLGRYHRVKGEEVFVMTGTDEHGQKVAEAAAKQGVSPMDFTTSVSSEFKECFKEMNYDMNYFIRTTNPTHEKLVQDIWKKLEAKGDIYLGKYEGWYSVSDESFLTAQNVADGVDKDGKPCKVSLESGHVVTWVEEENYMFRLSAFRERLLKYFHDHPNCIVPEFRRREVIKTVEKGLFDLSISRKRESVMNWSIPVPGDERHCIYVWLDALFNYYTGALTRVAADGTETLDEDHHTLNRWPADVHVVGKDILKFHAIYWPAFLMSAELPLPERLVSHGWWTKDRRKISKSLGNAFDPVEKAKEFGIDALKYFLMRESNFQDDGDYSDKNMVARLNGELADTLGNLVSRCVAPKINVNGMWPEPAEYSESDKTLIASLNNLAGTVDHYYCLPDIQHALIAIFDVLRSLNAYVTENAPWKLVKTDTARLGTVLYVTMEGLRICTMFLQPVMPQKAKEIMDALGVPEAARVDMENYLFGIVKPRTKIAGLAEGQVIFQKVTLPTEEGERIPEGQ

Measurements from “University of Dundee, Small-Polar-MMV Screening Library” (2021), ChEMBL document CHEMBL3988442.

Results are percentages, as filed. The record does not define 0% and 100%; most values in the screen are far below 50% and negative numbers occur (in some assays of this library far below -100). This is an unselected part of the compounds tested.

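Methionyl-tRNA synthetase (putative), Leishmania donovani (UniProt E9BF75). Primary screen of methionyl-tRNA synthetase; the read-out is not stated. The test concentration is not given. Values are per cent inhibition. About 68,000 compounds were tested under these conditions; 0.035% (about 24) showed 50% or more at least once.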

With COCCN(C)CCN1CC2(CCN(C3CCSC3)CC2)OC1=O (centres undefined) the screen gave 16.72%. Result for Cc1ccc(N2CCCC3(CCN(C(=O)C4CC4)C3)C2)nn1 (centres undefined) was 13.45%. With O=C(CN1C=Nc2ccccc2S1(=O)=O)NCc1ccccc1F the screen gave 14.86%. For CCc1ncc(CN[C@@H]2CCCN(C(C)=O)[C@H]2c2ccc(C)s2)cn1 the result was 16.77%. O=C1OCCC1N1CCN(c2cnccn2)CC1 (centres undefined) gave 9.239%.

CNC(=O)C(CCSC)NC(=O)c1ccc2ccccc2n1 (centres undefined) read 12.57%. Cc1cnn(C2CCCN(C(=O)c3ccc(N4CCCC4)nn3)C2)c1 (centres undefined) read 7.429%. For c1cc(CN2CCC(c3ccnc4nccn34)C2)ccn1 (centres undefined) the result was 16.2%. With Cc1ccc(-c2nc(CN3CCn4c(C)nnc4C3)co2)cc1 the screen gave 18.21%. With CCC(C)NC(=O)Nc1cccc(OC)c1 (centres undefined) the screen gave 5.866%.

For Cc1cc(=O)[nH]c(SCC(=O)N(C)CC2Cc3ccccc3CN2C)n1 (centres undefined) the result was 19.7%. For Cc1nc(CN2CCCC(N(C)CCc3cccs3)C2)no1 (centres undefined) the result was 8.85%. Cc1n[nH]cc1C(=O)NCc1cccnc1N1CCc2ccccc2C1 read 14.08%. Result for O=C(CS(=O)(=O)CC1CCCCC1)NC1CCCCNC1=O (centres undefined) was 2.834%. Result for COCCC(=O)N(C)Cc1nc(C(F)(F)F)cs1 was 16.91%.

O=C(CN1CCOC(Cn2cccn2)C1)Nc1cccnc1 (centres undefined) gave 7.649%. Result for Cc1ccc(-n2cc(C(=O)NCc3nnc4n3CCCCC4)nn2)cc1 was 17.09%. Result for CN(C)c1cc(NCc2cnc3n2CCN(CC2CC2)CC3)ncn1 was 20.29%. With Cn1ccc(C(=O)Nc2nccn2Cc2ccccc2Cl)cc1=O the screen gave 8.403%. For Cc1cc2n(n1)CC(CNCCc1cnn(C)c1)CN2 (centres undefined) the result was -0.2762%.

COc1ncccc1NC(=O)N(CC(C)C)C1CC1 gave 22.16%. With CCN(CC)Cc1ccc(C(=O)NC2CCc3ccccc32)o1 (centres undefined) the screen gave 9.059%. CCn1cc(S(=O)(=O)Nc2nc3c(s2)CCCC3)cn1 gave 14.45%. CCN(CC)C(CNS(=O)(=O)c1ccc(C(=O)NC)cc1)c1ccco1 (centres undefined) gave 15.24%. CN(C)c1ncccc1CNc1snc(Cl)c1C#N read 9.581%.

Result for CCN(C(=O)COc1nc(Cc2ccc(F)cc2)no1)C1CC1 was 14.21%. For CC(=O)N1CCS(=O)(=O)[C@@H]2CCN(CC(C)C)CC[C@@H]21 the result was 11.54%. With COc1cc(OC)c(-n2nnc(C(=O)O)c2C)cc1Cl the screen gave 14.29%. For Cc1csc(C2CCCCN2C(=O)CCCn2cccn2)n1 (centres undefined) the result was 4.878%. CC(C)(C)CC(=O)N1CCc2sccc2C1 read 6.044%.

Result for CSc1nc2cc(C)n(CC(=O)Nc3nccs3)c2c(=O)n1CC(C)C was 6.832%. Cc1cc(C(=O)N2CCC3(CC2)CN(CCN(C)C)C(=O)O3)nc(C)n1 read 6.265%. Result for CN(CC1CCOCC1)C1CCCN(c2ccccn2)C1 (centres undefined) was 9.627%. Result for COCCn1ccnc1C1CCCN(c2cc(OC)nc(N)n2)C1 (centres undefined) was 3.542%. CCCn1nc2c(cc1=O)CN(CCCS(N)(=O)=O)CC2 read 3.268%.

c1csc(C2(NCc3csc(C4CC4)n3)CCCC2)n1 read 13.19%. Result for O=C(Cn1cnc(NC(=O)CC2CCCC2)n1)NCc1ccccc1 was 18.37%. COCCN1CCC(CNC(=O)CCc2cc(F)ccc2F)C1 (centres undefined) read 16.84%. CCN(C(C)c1cccc(O)c1)S(=O)(=O)c1cccnc1 (centres undefined) read 5.319%. Result for Cc1c(-c2c(-c3ccccc3)ncn2[C@@H](C(=O)O)[C@H](C)O)cnn1C was 5.205%.

For CC(=O)N1CCC(N2CCOC[C@H]2c2nc(-c3cccnc3)c[nH]2)CC1 the result was -5.085%.

For reference, 4 entries once more:

For CCN(CC)Cc1ccc(C(=O)NC2CCc3ccccc32)o1 (centres undefined) the result was 9.059%.
For CCN(C(=O)COc1nc(Cc2ccc(F)cc2)no1)C1CC1 the result was 14.21%.
For CSc1nc2cc(C)n(CC(=O)Nc3nccs3)c2c(=O)n1CC(C)C the result was 6.832%.
For Cc1c(-c2c(-c3ccccc3)ncn2[C@@H](C(=O)O)[C@H](C)O)cnn1C the result was 5.205%.